Data on five substances can be found in paper PMC4646403.

The chains behind the UniProt entries cited, without tags or fusion partners. Where a name states a change or a piece, a line headed by the entry shows the natural chain unless it says otherwise.
UniProt Q383P6: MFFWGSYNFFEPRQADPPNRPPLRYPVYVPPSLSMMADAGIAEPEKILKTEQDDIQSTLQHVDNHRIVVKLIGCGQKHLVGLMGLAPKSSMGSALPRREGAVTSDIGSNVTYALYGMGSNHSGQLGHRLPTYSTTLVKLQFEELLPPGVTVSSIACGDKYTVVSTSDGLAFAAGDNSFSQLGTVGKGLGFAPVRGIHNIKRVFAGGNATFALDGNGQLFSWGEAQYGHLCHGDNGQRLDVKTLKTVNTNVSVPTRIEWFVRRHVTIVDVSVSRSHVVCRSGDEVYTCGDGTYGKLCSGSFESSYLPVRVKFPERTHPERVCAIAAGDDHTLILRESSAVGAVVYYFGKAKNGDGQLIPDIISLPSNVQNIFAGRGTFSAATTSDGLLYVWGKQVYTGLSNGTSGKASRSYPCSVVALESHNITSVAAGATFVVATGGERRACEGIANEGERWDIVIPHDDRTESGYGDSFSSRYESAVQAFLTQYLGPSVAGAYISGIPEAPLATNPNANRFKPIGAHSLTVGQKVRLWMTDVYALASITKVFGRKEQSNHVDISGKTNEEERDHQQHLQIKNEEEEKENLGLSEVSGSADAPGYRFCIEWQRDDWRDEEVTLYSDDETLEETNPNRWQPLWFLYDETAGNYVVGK
UniProt Q585S8: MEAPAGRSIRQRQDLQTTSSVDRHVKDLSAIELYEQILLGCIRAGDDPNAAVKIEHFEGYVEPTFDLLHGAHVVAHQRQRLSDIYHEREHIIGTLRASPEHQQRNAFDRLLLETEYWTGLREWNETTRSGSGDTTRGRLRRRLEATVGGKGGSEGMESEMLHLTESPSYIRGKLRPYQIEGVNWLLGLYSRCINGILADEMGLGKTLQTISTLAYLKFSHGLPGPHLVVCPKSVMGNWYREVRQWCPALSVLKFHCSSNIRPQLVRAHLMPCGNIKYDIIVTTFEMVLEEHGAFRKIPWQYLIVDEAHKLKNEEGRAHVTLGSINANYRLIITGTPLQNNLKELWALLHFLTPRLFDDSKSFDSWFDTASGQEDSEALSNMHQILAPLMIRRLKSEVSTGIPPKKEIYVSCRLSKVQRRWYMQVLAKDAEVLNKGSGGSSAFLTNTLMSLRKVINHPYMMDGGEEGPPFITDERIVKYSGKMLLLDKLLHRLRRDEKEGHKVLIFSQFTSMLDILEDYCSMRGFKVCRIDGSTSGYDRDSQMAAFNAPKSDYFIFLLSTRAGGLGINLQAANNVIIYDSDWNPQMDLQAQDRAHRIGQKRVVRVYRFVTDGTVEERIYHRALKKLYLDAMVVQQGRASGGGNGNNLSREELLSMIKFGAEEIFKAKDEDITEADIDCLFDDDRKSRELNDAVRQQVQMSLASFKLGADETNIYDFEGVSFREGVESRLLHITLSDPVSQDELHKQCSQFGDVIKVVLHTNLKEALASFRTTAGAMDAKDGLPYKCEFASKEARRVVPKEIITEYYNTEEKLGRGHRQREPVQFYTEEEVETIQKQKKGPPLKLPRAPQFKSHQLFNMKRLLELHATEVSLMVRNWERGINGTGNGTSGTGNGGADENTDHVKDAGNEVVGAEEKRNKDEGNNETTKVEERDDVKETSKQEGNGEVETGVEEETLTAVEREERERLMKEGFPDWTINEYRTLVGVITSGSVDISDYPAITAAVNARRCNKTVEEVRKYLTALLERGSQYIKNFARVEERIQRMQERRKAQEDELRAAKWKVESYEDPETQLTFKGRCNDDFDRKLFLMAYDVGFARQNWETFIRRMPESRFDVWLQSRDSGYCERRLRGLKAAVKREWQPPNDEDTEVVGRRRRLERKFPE
UniProt Q57VV2: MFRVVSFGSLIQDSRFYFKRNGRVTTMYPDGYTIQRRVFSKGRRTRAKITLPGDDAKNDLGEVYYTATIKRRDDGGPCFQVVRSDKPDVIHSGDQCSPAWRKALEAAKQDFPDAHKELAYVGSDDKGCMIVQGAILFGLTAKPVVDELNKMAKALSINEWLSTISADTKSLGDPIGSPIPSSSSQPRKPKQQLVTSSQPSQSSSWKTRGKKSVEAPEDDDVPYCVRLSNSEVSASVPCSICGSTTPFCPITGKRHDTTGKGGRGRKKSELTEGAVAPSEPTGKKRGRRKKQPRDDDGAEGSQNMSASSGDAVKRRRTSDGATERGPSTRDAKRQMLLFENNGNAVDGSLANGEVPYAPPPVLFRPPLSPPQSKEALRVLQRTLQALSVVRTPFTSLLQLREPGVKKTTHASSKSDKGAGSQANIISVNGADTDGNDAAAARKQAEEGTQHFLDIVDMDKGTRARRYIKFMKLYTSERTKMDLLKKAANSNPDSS
UniProt Q38B59: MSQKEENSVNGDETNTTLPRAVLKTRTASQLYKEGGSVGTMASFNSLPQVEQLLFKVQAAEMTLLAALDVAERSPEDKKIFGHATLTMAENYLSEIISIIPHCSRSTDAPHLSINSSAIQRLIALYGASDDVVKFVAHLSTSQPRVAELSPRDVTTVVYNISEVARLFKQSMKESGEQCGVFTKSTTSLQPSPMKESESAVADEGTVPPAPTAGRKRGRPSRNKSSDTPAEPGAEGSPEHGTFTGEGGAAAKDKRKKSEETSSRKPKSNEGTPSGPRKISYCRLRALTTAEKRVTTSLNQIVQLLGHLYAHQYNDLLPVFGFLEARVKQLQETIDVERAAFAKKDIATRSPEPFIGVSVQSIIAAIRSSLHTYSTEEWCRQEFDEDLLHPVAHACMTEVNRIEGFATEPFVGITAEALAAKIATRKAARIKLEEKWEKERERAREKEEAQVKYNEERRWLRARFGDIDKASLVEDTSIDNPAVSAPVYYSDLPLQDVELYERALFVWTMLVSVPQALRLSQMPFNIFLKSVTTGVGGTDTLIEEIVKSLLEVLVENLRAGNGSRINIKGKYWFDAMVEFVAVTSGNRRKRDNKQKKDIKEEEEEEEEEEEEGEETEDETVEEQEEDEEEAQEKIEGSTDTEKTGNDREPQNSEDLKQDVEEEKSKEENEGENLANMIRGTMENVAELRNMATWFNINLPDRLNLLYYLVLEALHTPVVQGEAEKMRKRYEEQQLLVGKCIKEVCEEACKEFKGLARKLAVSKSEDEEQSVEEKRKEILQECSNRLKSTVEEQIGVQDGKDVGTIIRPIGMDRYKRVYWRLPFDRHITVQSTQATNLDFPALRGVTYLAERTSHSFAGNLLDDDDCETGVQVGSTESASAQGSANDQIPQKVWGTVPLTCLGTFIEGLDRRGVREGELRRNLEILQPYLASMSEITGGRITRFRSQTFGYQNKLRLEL

Results are given in words; binding and its absence hold for the method and conditions named. In cells and extracts the contact can be indirect. Binding can be weak; no strength is given.

The target of test [1] is RCCP tagged at the C terminus with a triple HA epitope (Trypanosoma brucei brucei 427) (UniProt Q383P6). Kind of test: co-IP; procyclic form T. brucei extracts with 0.1% Nonidet P-40; monoclonal anti-Myc or anti-HA on Sepharose CL-4B columns, 2 h at 4 °C, 150 mM KCl, HEPES-KOH pH 7.7; Western blot.
The target is the same in test [2]. Description: co-IP; bloodstream form T. brucei 221GP1(VO2+) extracts with 0.1% Nonidet P-40; monoclonal anti-Myc or anti-HA on Sepharose CL-4B columns, 2 h at 4 °C, 150 mM KCl, HEPES-KOH pH 7.7; Western blot.
The target of test [3] is TbISWI tagged at the C terminus with a triple Myc epitope (Trypanosoma brucei brucei 427) (UniProt Q585S8). Description: co-IP; procyclic form T. brucei extracts with 0.1% Nonidet P-40; monoclonal anti-Myc or anti-HA on Sepharose CL-4B columns, 2 h at 4 °C, 150 mM KCl, HEPES-KOH pH 7.7; Western blot.
The target in test [4] is FYRP tagged at the C terminus with a triple Myc epitope (Trypanosoma brucei brucei 427) (UniProt Q57VV2). The test is described as above.
The target is the same in test [5]. Kind of test: co-IP; bloodstream form T. brucei 221GP1(VO2+) extracts with 0.1% Nonidet P-40; monoclonal anti-Myc or anti-HA on Sepharose CL-4B columns, 2 h at 4 °C, 150 mM KCl, HEPES-KOH pH 7.7; Western blot.
The target of test [6] is NLP tagged at the C terminus with a triple HA epitope (Trypanosoma brucei brucei 427) (UniProt Q38B59). Kind of test: co-IP; procyclic form T. brucei extracts with 0.1% Nonidet P-40; monoclonal anti-Myc or anti-HA on Sepharose CL-4B columns, 2 h at 4 °C, 150 mM KCl, HEPES-KOH pH 7.7; Western blot.

“FYRP tagged at the C terminus with a triple Myc epitope (from UniProt Q57VV2)”: the binding result in test [1] and in test [2] was “binds” in each case. In the case of “RCCP tagged at the C terminus with a triple HA epitope (from UniProt Q383P6)”, the binding entry in test [3], in test [4] and in test [5] was “binds” in each case. Regarding “RCCP tagged at the C terminus with a triple Myc epitope (from UniProt Q383P6)”, the binding result in test [6] was “binds”. “TbISWI (untagged, endogenous) (from UniProt Q585S8)”: the binding entry in test [2] is “binds”. As to “TbISWI tagged at the C terminus with a triple Myc epitope (from UniProt Q585S8)”, the binding entry in test [1] is recorded as “binds”.
